Common to all, as to test: co-IP
For experiment [1], the target named is T1, hZBP1 mutant Zα1 (mutZα1) (human) (UniProt Q9H171).
T1 sequence: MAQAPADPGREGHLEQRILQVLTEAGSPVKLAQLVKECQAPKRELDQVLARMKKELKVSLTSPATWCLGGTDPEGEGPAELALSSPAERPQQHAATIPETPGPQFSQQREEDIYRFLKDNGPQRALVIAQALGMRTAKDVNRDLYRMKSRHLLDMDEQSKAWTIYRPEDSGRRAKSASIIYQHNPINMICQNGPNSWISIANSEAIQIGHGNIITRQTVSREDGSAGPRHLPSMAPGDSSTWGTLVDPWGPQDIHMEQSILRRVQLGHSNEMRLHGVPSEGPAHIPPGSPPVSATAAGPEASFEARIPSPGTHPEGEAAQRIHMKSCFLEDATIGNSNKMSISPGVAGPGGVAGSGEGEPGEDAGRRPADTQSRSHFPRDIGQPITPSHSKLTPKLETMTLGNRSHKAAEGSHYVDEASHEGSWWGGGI

Sequences of proteins named here, by UniProt entry; tags and fusion partners are left off.
UniProt Q13546: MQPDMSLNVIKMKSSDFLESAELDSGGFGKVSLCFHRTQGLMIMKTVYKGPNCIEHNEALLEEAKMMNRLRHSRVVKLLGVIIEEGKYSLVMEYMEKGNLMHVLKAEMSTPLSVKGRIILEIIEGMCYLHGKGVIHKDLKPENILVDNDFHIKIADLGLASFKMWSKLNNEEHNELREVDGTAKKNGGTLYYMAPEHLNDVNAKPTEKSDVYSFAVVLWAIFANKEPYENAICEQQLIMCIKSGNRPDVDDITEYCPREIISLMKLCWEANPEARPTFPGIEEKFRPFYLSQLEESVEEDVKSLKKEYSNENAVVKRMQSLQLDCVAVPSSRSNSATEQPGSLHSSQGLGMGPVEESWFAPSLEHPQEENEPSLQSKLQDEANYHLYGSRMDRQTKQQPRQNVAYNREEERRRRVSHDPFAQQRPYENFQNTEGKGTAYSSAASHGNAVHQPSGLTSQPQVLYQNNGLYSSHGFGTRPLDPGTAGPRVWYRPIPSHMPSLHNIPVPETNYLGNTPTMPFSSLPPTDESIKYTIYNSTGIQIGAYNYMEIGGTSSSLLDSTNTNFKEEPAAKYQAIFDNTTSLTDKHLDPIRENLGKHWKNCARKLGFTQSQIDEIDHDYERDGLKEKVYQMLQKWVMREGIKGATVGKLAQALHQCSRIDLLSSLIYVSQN
UniProt Q9QZL0: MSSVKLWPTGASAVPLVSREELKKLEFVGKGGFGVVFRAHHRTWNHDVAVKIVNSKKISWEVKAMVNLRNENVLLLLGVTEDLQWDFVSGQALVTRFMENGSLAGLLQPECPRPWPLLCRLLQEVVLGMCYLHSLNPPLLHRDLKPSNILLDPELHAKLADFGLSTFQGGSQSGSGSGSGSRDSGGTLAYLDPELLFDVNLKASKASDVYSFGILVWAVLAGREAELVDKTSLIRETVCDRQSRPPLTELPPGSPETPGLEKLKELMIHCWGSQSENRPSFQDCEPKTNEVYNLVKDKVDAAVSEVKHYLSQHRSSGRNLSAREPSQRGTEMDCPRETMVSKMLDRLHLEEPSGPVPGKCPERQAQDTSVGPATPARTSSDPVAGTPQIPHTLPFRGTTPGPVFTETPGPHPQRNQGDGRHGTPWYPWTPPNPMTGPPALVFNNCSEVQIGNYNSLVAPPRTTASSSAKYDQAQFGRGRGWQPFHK

The target of experiment [2] is T2, hZBP1 mutant RHIM B (mutRHIMB) (human) (UniProt Q9H171).
T2 sequence: T1 sequence with D46N, A50Y, V264A, Q265A, L266A, G267A

Experiment [3] deals with T3, Flag-mZBP1 expressed in MEFs (mouse) (UniProt Q9QY24).
T3 sequence: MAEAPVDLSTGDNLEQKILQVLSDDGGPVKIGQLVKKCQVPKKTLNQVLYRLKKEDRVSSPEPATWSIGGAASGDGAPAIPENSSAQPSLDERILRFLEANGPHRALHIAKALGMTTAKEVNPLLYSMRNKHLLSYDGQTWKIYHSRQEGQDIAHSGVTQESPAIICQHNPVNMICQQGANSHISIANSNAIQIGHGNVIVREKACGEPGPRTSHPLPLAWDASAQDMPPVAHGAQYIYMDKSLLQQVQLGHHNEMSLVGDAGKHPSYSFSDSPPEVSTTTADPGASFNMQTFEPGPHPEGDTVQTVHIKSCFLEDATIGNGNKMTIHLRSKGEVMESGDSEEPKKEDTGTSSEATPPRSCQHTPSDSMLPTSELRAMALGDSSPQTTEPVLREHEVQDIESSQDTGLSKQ

Experiment [4] addresses T4, FLAG-tagged human ZBP1 (Flag-hZBP1) (human) (UniProt Q9H171).
T4 sequence: T1 sequence with D46N, A50Y

Changes are numbered by the printed parent chain. Results are given in words; binding and its absence hold for the method and conditions named. In cells and extracts the contact can be indirect. Some results given as binding are weak or reduced against the parent protein; the word gives no strength. For some of these results: Tags and fused reporters may be left off the sequences shown.

Take “RIPK1 (human, endogenous) (from UniProt Q13546 1-671)”: the binding result in experiment [1] and in experiment [2] was “binds” throughout.
On to “RIPK3 (mouse, endogenous in MEFs) (from UniProt Q9QZL0 1-486)”, for which, in experiment [3], the binding entry is reported as “binds”.
Regarding “mouse RIPK3 (mRIPK3) reconstituted in HT29-hZBP1 (RIPK3 KO) cells (from UniProt Q9QZL0 1-486)”, in experiment [4], the binding entry was “binds”.

The record behind these values is paper doi:10.1101/2024.09.17.613393.
